Data as given in PubChem BioAssay AID1159584 (Peter MacCallum Cancer Centre, 2016).

Purpose: 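Knock-downs that harm CDH1-null cells more than parental MCF10A cells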 (primary screen)
System: human MCF10A breast epithelial cells, parental and CDH1-null
Knock-down reagent: siRNA against human genes
Measured: 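ATP luminescence (CellTiter-Glo) viability per line relative to mean mock wells over all plates, and the ratio of CDH1-null to parental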
Direction: CDH1-null / parental viability ratio: higher = CDH1-null cells survive relatively better than parental; CDH1-null viability vs mock: higher = more viable CDH1-null cells
In all, the deposit lists about 18,000 reagents; this is a random part of them. Not all columns of the deposit are shown. The record does not give: the amount of reagent, the time to read-out.

gene,CDH1-null / parental viability ratio,CDH1-null viability vs mock (fraction of mock)
MAGEA12 (GeneID 4111),1.13,0.95
ALG8 (GeneID 79053),1.12,1.1
CCDC157 (GeneID 550631),1.29,0.72
NPY1R (GeneID 4886),0.58,0.62
SCUBE3 (GeneID 222663),1.3,1.13
PPEF2 (GeneID 5470),1.67,0.8
RRBP1 (GeneID 6238),0.98,1.04
OR4C46 (GeneID 119749),0.92,0.33
FRMPD4 (GeneID 9758),1.03,0.79
PSMA2 (GeneID 5683),1.5,0.63
VWA1 (GeneID 64856),1.23,0.9
DDX54 (GeneID 79039),1.23,0.96
STX1A (GeneID 6804),0.96,0.82
PRB4 (GeneID 5545),0.92,0.7
MYOZ1 (GeneID 58529),1.11,0.6
SMARCA1 (GeneID 6594),1.01,0.82
MTTP (GeneID 4547),0.93,1.06
LAG3 (GeneID 3902),0.81,0.57
METAP1 (GeneID 23173),1.1,0.92
CALCOCO1 (GeneID 57658),0.86,0.78
NSUN5P1 (GeneID 155400),1.12,0.74
FRMPD1 (GeneID 22844),1.21,0.92
SLC25A23 (GeneID 79085),1.12,1.16
C9orf152 (GeneID 401546),0.97,0.86
EEA1 (GeneID 8411),1.09,0.86
MCRS1 (GeneID 10445),0.96,0.77
MAGED2 (GeneID 10916),1.39,1.17
MAP3K9 (GeneID 4293),0.83,0.64
RAB11FIP3 (GeneID 9727),0.88,0.44

Entries listed so far whose target name starts with F or f (2):
gene,CDH1-null / parental viability ratio,CDH1-null viability vs mock (fraction of mock)
FRMPD4 (GeneID 9758),1.03,0.79
FRMPD1 (GeneID 22844),1.21,0.92

Next records:
gene,CDH1-null / parental viability ratio,CDH1-null viability vs mock (fraction of mock)
PAX1 (GeneID 5075),0.99,0.91
ZNF692 (GeneID 55657),0.77,0.57
KCTD16 (GeneID 57528),0.83,0.72
NDUFAF4 (GeneID 29078),1,1.04
TFAP2B (GeneID 7021),1.07,1.08
TCFL5 (GeneID 10732),1.2,0.72
PURG (GeneID 29942),1.07,0.94
CD99L2 (GeneID 83692),1,0.84
TXNRD1 (GeneID 7296),0.97,0.91
TEF (GeneID 7008),0.92,0.87
CRB3 (GeneID 92359),0.78,0.28
GAREM1 (GeneID 64762),1.2,0.53
CBY2 (GeneID 220082),0.94,0.9
TMEM87A (GeneID 25963),0.82,0.84
NDUFS7 (GeneID 374291),0.79,0.76
SPSB4 (GeneID 92369),0.91,0.6
FBXO28 (GeneID 23219),1.02,0.84
LHX8 (GeneID 431707),1.38,0.99
FMO4 (GeneID 2329),0.98,0.54
AMER1 (GeneID 139285),0.98,0.51
BANF2 (GeneID 140836),1.1,0.78
HLA-DPB1 (GeneID 3115),0.83,0.67
ALCAM (GeneID 214),1.05,0.6
IPO7 (GeneID 10527),1.11,0.93
PPAN-P2RY11 (GeneID 692312),0.94,0.58
ZNF367 (GeneID 195828),1.25,1.16
LYPD8 (GeneID 646627),0.83,0.78
LSM3 (GeneID 27258),1.14,0.66
SMAD3 (GeneID 4088),0.84,0.86
FAM219B (GeneID 57184),1.18,0.71
CCDC42 (GeneID 146849),1.22,0.61
GAGE5 (GeneID 2577),1.22,0.73
RSF1 (GeneID 51773),0.78,0.73
ARL17B (GeneID 100506084),0.93,0.7
SART3 (GeneID 9733),1.22,0.93
ZNF528 (GeneID 84436),0.62,0.3
GUSB (GeneID 2990),0.96,0.79
ASRGL1 (GeneID 80150),1.03,1.02
MED23 (GeneID 9439),0.98,0.88
